The supplement of paper PMC3334620
Whole data set: some 33,000 sequences, median “E-score (-0.5 to 0.5)” near -0.0014, cut for the highest 2% near 0.25. Some of the results follow.

The sequences below were run against T1, Cad1 (UniProt P24813) (assay: PBM E-score (8-mer binding enrichment) (E-score (-0.5 to 0.5)); higher = stronger / more preferred TF binding). Conditions: protein concentration: 100 nM; construct: GST-full length.
T1 sequence: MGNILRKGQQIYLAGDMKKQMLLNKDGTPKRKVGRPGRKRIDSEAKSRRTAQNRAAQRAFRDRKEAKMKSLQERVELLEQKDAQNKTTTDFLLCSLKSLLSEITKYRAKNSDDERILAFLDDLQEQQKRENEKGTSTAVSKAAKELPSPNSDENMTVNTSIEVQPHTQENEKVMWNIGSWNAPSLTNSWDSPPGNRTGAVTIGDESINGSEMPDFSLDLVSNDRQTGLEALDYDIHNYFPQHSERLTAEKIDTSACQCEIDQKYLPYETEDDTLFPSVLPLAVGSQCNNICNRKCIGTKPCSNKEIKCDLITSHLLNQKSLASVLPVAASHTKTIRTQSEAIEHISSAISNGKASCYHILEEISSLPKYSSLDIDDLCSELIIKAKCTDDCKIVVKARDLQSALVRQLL
Procedure, shortened: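 Universal all-10-mer Agilent arrays, double-stranded by primer extension on fresh or once-stripped slides, were probed with about 100-200 nM GST-tagged yeast transcription factors made by PURExpress. Fluorescent anti-GST detected bound protein, and masliner normalised the scans. E-scores from the Universal PBM Analysis Suite were given to each ungapped eight-base word pooled with its reverse complement.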

Row | Sequence | PBM E-score
1 | ACGTAAAA | 0.116
2 | CCTTTAAA | -0.188
3 | AAGAGATT | 0.0855
4 | TAAGGCTA | -0.0214
5 | CCGCACGC | 0.00426
6 | ACCTTACA | 0.0057
7 | CCCTTGTC | -0.116
8 | GGAGATAA | 0.0145
9 | ATAGTGCC | 0.023
10 | AGGAACCG | -0.0309
11 | CACGCGAC | -0.0843
12 | CGCGCATA | 0.0311
13 | AGGACGAT | -0.00359
14 | GGACGGTA | -0.0373
15 | CCTCTGGA | -0.172
16 | ACATAAGG | 0.187
17 | GCCTGTCA | 0.00179
18 | ATCGGAAT | 0.206
19 | AGTTGAAG | -0.0031
20 | CCGCAGCC | -0.132
21 | CACATAAC | -0.0202
22 | ACACCCTA | 0.0759
23 | AAGCAACC | 0.0395
24 | CCGTTCGC | -0.0602
25 | AACTGACG | -0.0709

Row | Sequence | PBM E-score
26 | ATCCGACG | 0.0868
27 | AGAGCGCT | 0.1
28 | AACACATC | 0.0909
29 | GGTTACTA | 0.0723
30 | GCATGTGA | 0.015
31 | CGACAGCA | 0.0252
32 | GACATGCA | -0.13
33 | ATGGGTCG | -0.0602
34 | GTCGCATA | 0.115
35 | ACCTGAGT | 0.0744
36 | AGGCCTTC | -0.0154
37 | CGACCTTC | -0.0438
38 | GATCTCGA | 0.181
39 | ACTGGCAG | -0.128
40 | AGATACAG | 0.0445
41 | ACACGCAG | -0.157
42 | GGGATAAA | 0.168
43 | CCCTCGCA | -0.0841
44 | GGTCAAAC | -0.0442
45 | GCAACTGA | 0.161
46 | GCTCAGAA | -0.0445
47 | GTCGGAAC | -0.0456
48 | AGGATCCC | -0.144
49 | GCTCCTAA | -0.162
50 | ACGCCTGC | -0.173

Row | Sequence | PBM E-score
51 | GCATCCGC | -0.00028
52 | CCTTTTGC | -0.223
53 | ACTTTAAG | 0.104
54 | TATTAGGA | 0.177
55 | AAACAGAA | 0.0706
56 | CCTCACTA | -0.0425
57 | ATCGGCCC | -0.00956
58 | CTCATACA | 0.0928
59 | CGGCGTAA | 0.116
60 | AATTCCAA | 0.0834
61 | CTTCCAGA | -0.0786
62 | GCATATTA | 0.141
63 | AGTCGTAG | 0.0922
64 | GCGTTTCC | 0.00132
65 | CAACGCTC | -0.00505
66 | CAGAGGAG | -0.207
67 | CCTTGGCC | -0.294
68 | ATTGGCCG | -0.0152
69 | CCTTTCAC | -0.0212
70 | TACAGGAA | 0.143
71 | CTACCTTA | -0.0649
72 | ATGATTCG | 0.0287
73 | GAGTTCTA | -0.0249
74 | AGCGTGAT | 0.0917
75 | GTACGTCA | -0.0733

Row | Sequence | PBM E-score
76 | CAGACGCC | 0.0512
77 | AGGCGAAG | -0.102
78 | CCGCCCAA | -0.0315
79 | ATTTGCAG | 0.071
80 | GCGTTCCA | 0.00756
81 | AGAACCAG | -0.0228
82 | GGTTCAAA | -0.00859
83 | ATTAAGTG | 0.0416
84 | CGCACCAG | 0.079
85 | CGTATCCC | -0.143
86 | CAGGAATC | 0.136
87 | TATAATGA | 0.0357
88 | ATTTCATC | 0.146
89 | GCGCGGGA | 0.131
90 | GCGCCACC | -0.166
91 | ATCTGTGG | -0.156
92 | GCAGCAGA | 0.0805
93 | GCGTTACA | 0.0567
94 | GAAAAAGA | 0.142
95 | ATTCCGGA | 0.254
96 | GCAAAAAA | 0.209
97 | ATAATCCG | 0.119
98 | GTTTTCTA | 0.225
99 | GCCCTGTA | 0.0929
100 | AGTACTTC | 0.101

Row | Sequence | PBM E-score
101 | GGTACACA | -0.0387
102 | CACAGATG | -0.0298
103 | CTAGGTTC | -0.112
104 | CGTGCGGA | 0.0975
105 | AATCCGTG | -0.115
106 | CAGGAGAA | 0.18
107 | ACCCAGAC | 0.0577
108 | ACATTCTC | 0.0691
109 | ACACCGCG | -0.019
110 | CCTGTGAG | -0.0161
111 | GAACCGGC | -0.143
112 | CCTTATCA | 0.257
113 | AATCGGCT | 0.0275
114 | GCCCATCC | -0.201
115 | TACTAACA | 0.236
116 | CGGCGGCC | -0.0816
117 | CATTGTGC | -0.0206
118 | CAGGGCAG | 0.0366
119 | AGTATTCG | 0.0629
120 | CAAAGTTC | -0.0988
121 | CTTATTAA | 0.42
122 | AATTCTAA | 0.0775
123 | CTTGTTGA | 0.0639
124 | ACATTGCT | -0.0105
125 | TGGGGAAA | 0.0555

Row | Sequence | PBM E-score
126 | CGGTCCTA | -0.137
127 | GGATTCAA | 0.0187
128 | CCTAAATC | 0.118
129 | CATAAAAA | 0.15
130 | CAGCATAA | 0.169
131 | AAACATCG | 0.0586
132 | AACACCTT | 0.043
133 | TAGCCACA | 0.112
134 | TCTTCCAA | 0.0298
135 | GACGAGGC | -0.0866
136 | GAATACTA | 0.168
137 | ATAGGTTA | -0.042
138 | GACGTTCC | -0.0301
139 | AGTAGACT | -0.0304
140 | ATGAACGC | 0.252
141 | GTCGAAAC | -0.00792
142 | GGTTGTAC | -0.0362
143 | CAAAAATA | 0.237
144 | CACTTCGA | 0.0204
145 | CTACAGGC | -0.247
146 | ATAGCGTC | -0.0472
147 | GCCACGCC | -0.171
148 | GATTCAGC | 0.092
149 | CCAAATCC | -0.158
150 | ACATTTCC | 0.0781

Rewritten as tab-separated lines: entries from further up
Row	Sequence	PBM E-score
144	CACTTCGA	0.0204
145	CTACAGGC	-0.247
146	ATAGCGTC	-0.0472
147	GCCACGCC	-0.171
148	GATTCAGC	0.092

A section of the results above, as a working copy:
Row | Sequence | PBM E-score
97 | ATAATCCG | 0.119
98 | GTTTTCTA | 0.225
99 | GCCCTGTA | 0.0929

Pulled one by one from the list above, six records:
Row | Sequence | PBM E-score
24 | CCGTTCGC | -0.0602
135 | GACGAGGC | -0.0866
19 | AGTTGAAG | -0.0031
111 | GAACCGGC | -0.143
71 | CTACCTTA | -0.0649
104 | CGTGCGGA | 0.0975

Next results.

Row | Sequence | PBM E-score
151 | GCGAGGGA | -0.144
152 | ACATGTTG | 0.102
153 | CTATCCGA | 0.13
154 | CAGACTGG | -0.148
155 | CCACATCC | -0.0199
156 | TCCTATAA | -0.0943
157 | TGAAGAAA | 0.0964
158 | GAAGACAA | 0.0581
159 | CAATAATG | 0.0688
160 | GCCTAGAA | -0.126
161 | AGTCGTGC | -0.15
162 | AGGTCCCC | -0.312
163 | CAGGTGCG | 0.0717
164 | ACTCAATC | -0.059
165 | TAGTTAGA | 0.0256
166 | AGTTGCAC | -0.0648
167 | ATGTTAGC | 0.0327
168 | ACGTTCGC | -0.156
169 | CCATGAAC | 0.124
170 | AGAACGGC | 0.0691
171 | TATGGACA | 0.139
172 | AATCAACG | 0.218
173 | ACTGGCTC | -0.119
174 | AAGCTGGC | -0.0814
175 | CAGGGAAA | -0.054

Row | Sequence | PBM E-score
176 | AATCCGAA | -0.0355
177 | GCATTTCA | 0.0711
178 | AGGTTCGG | -0.0731
179 | GATATGGA | 0.266
180 | AGGCGACA | -0.09
181 | ATACATTA | 0.142
182 | ATCCGTGG | -0.181
183 | AATGTCCC | -0.161
184 | AGACCGGC | -0.266
185 | GACTAGTC | 0.0487
186 | AGTATACC | -0.0136
187 | CAGAACCC | -0.00867
188 | CTGCCCTC | -0.293
189 | GTACCCAA | 0.0319
190 | CACATCTA | 0.0263
191 | AGAACCGA | -0.0568
192 | GCGACCAC | -0.0263
193 | TGTTCCAA | -0.0523
194 | CAAAGGTA | -0.0389
195 | GGCACAAC | -0.129
196 | CGAGCTCC | -0.0362
197 | GTTCCTAA | 0.0435
198 | ACATTGAC | 0.0444
199 | CCAACTCA | -0.0884
200 | GCATGAGA | 0.125

Row | Sequence | PBM E-score
201 | CCTCACAC | -0.132
202 | ACTACTGC | -0.0336
203 | CAAACGGG | -0.00709
204 | AGGGGTGA | -0.343
205 | ACTATCGA | -0.0586
206 | ACTTTGGC | -0.0521
207 | ATAAAACG | 0.0271
208 | CCGCAGCG | -0.134
209 | GAACCGTA | -0.126
210 | GCGTAAAC | 0.221
211 | CTCGCTGA | 0.0202
212 | AATCCGAG | -0.0178
213 | AGGAATGC | -0.122
214 | AACAGCAC | 0.1
215 | GCTGAGGA | -0.222
216 | ACGGTTAG | -0.181
217 | TAACAGCA | 0.15
218 | ACGTACCA | 0.0421
219 | AATCTCTC | 0.0573
